This assay concerns the target karyopherin-α4 (KPNA4) with C-terminal FLAG-HA-His6 tag (human) (UniProt O00629). Nature of the assay: pull-down; His-tag pull-down (Dynabeads His-Tag Isolation & Pulldown) from lysate of SAS cells stably expressing KPNA4-tag, with or without U0126 (10 μM, 24 h); western blot for KPNB1. On the technique in general: Immunoblotting shows a protein as a band on a membrane.

Sequences of proteins named here, by UniProt entry; tags and fusion partners are left off.
UniProt O00629: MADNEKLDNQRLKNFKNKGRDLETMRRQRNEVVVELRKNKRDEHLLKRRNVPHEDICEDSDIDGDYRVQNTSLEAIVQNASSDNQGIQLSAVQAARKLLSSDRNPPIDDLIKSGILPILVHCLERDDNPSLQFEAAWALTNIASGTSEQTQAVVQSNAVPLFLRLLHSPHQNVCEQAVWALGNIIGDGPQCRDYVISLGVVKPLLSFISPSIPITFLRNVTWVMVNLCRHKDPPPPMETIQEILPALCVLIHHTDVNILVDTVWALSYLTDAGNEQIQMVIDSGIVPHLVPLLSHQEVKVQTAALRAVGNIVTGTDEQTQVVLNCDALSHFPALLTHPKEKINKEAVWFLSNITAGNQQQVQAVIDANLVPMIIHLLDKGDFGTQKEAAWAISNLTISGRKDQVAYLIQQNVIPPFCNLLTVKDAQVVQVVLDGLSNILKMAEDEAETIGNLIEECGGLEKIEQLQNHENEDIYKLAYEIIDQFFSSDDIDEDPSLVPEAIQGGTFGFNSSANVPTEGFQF
UniProt Q14974: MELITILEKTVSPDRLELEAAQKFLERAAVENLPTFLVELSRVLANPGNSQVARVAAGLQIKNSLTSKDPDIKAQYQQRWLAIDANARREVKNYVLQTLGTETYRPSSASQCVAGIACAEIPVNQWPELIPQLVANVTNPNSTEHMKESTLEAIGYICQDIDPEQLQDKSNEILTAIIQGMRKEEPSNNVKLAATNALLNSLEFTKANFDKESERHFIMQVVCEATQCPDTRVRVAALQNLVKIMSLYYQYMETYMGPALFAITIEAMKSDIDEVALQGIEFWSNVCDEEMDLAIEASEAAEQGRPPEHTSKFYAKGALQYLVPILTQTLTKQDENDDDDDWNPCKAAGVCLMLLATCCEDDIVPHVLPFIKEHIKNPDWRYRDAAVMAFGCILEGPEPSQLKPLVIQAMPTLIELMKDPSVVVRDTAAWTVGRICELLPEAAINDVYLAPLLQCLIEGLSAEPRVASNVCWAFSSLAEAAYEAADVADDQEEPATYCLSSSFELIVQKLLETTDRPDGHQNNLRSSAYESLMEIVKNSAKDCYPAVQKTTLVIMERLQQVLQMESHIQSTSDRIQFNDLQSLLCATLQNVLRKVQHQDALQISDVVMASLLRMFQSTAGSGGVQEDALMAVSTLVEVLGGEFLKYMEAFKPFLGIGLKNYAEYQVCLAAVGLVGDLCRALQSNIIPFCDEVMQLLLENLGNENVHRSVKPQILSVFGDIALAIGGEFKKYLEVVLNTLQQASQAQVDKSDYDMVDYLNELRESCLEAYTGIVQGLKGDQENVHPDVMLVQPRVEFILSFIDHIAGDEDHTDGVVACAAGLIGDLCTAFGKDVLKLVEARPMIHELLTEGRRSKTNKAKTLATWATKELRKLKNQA

The values that follow come from PMC7056645.

Results are given in words; binding and its absence hold for the method and conditions named. In cells and extracts the contact can be indirect. Some entries that bind do so weakly or less than the wild type.

As to “karyopherin-β1 (KPNB1) (from UniProt Q14974 1-876)”, the binding result was “binds”.
